Data as given in PubChem BioAssay AID1224827 (NIAID, 2016)

- Aim: 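Identify regulators of the macrophage TNF-alpha response to bacterial LPS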 (follow-up of hits)
- Cells: RAW264.7 G9 mouse macrophage reporter clone
- Reagents: single siRNA against mouse genes, 100 nM siRNA
- Timing: siRNA for 2 days, then LPS about 16 h
- Challenge: bacterial lipopolysaccharide (LPS), 10 ng/ml, cells fixed after overnight (about 16 h) stimulation
- Read-out: 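TNF promoter reporter red fluorescence in nuclei, background subtracted, normalised per plate and to non-targeting control siRNA, as z-scores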
- Scale: TNF reporter z-score, mean and TNF reporter z-score: higher = stronger Tnf promoter reporter signal; gene median z, three same-vendor siRNAs: higher = stronger Tnf reporter signal for the gene
- Rule for the call: 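Active siRNA: replicate-mean z-score of 2 or more, or -2 or less; no calls for control wells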
The deposit covers about 3,800 reagents; below is a random part of them. In the full data, about 2,200 (57%) are marked active. 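Active means a strong reporter change in either direction; calls are per siRNA, not per gene; qiagen siRNAs gave weaker effects.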 The numbers tell different reagents against one gene apart.

gene symbol | siRNA no. | TNF reporter z-score, mean | gene median z, three same-vendor siRNAs | TNF reporter z-score, repeat 1 | TNF reporter z-score, repeat 2 | activity call
Fpr1 | 1 | -3.17 | -4.17 | -3.23 | -3.1 | active
Fpr1 | 2 | -4.17 | -4.17 | -3.86 | -4.47 | active
Fpr1 | 3 | -4.71 | -4.17 | -4.65 | -4.77 | active
Fpr1 | 4 | 5.46 | 0.892 | 9.18 | 1.74 | active
Fpr1 | 5 | 1.86 | 0.892 | 3.68 | 0.0421 | inactive
Fpr1 | 6 | -0.894 | 0.892 | -0.67 | -1.12 | inactive
Tmem71 | 1 | -1.97 | -2.29 | -2.22 | -1.73 | inactive
Tmem71 | 2 | -2.1 | -2.29 | -2.37 | -1.83 | active
Tmem71 | 3 | -5.91 | -2.29 | -6.1 | -5.72 | active
Tmem71 | 4 | 5.61 | 1.87 | 8.68 | 2.53 | active
Tmem71 | 5 | 0.758 | 1.87 | 1.46 | 0.0544 | inactive
Tmem71 | 6 | 0.643 | 1.87 | 2.28 | -0.994 | inactive
Actl7a | 1 | -3.28 | -4.26 | -4.05 | -2.52 | active
Actl7a | 2 | -4.6 | -4.26 | -5.1 | -4.1 | active
Actl7a | 3 | -4.95 | -4.26 | -4.43 | -5.46 | active
Actl7a | 4 | 2.68 | 1.33 | 4.71 | 0.653 | active
Actl7a | 5 | 0.652 | 1.33 | 2 | -0.699 | inactive
Actl7a | 6 | 1.48 | 1.33 | 4.82 | -1.86 | inactive
Mrps5 | 1 | -2.89 | -3.33 | -3.78 | -2 | active
Mrps5 | 2 | -3.63 | -3.33 | -2.8 | -4.46 | active
Mrps5 | 3 | -4.16 | -3.33 | -2.87 | -5.44 | active
Mrps5 | 4 | 4.07 | 1.07 | 6.67 | 1.47 | active
Mrps5 | 5 | 3.96 | 1.07 | 7.25 | 0.678 | active
Mrps5 | 6 | -2.5 | 1.07 | -2.57 | -2.42 | active

As entered above.
For “TNF reporter z-score, repeat 2”, Actl7a #3 shows -5.46
For “TNF reporter z-score, repeat 1”, Fpr1 #4 has 9.18
For “TNF reporter z-score, repeat 1”, Mrps5 #3 is entered as -2.87
Fpr1 #3, gene median z, three same-vendor siRNAs → -4.17
Actl7a #2, TNF reporter z-score, repeat 2: -4.1
Entry of Tmem71 #4 in “gene median z, three same-vendor siRNAs”: 1.87

More entries follow:
gene symbol | siRNA no. | TNF reporter z-score, mean | gene median z, three same-vendor siRNAs | TNF reporter z-score, repeat 1 | TNF reporter z-score, repeat 2 | activity call
Tas2r108 | 1 | 0.694 | -0.51 | 0.574 | 0.813 | inactive
Tas2r108 | 2 | 0.564 | -0.51 | -1.59 | 2.72 | inactive
Tas2r108 | 3 | -3.47 | -0.51 | -2.52 | -4.43 | active
Tas2r108 | 4 | 6.64 | -0.846 | 11.5 | 1.78 | active
Tas2r108 | 5 | -1.02 | -0.846 | 0.765 | -2.8 | inactive
Tas2r108 | 6 | -2.85 | -0.846 | -2.46 | -3.25 | active
Hspa12a | 1 | 1.3 | -0.391 | 0.771 | 1.82 | inactive
Hspa12a | 2 | 0.733 | -0.391 | -1.55 | 3.02 | inactive
Hspa12a | 3 | -4.84 | -0.391 | -4.62 | -5.07 | active
Hspa12a | 4 | 1.66 | 0.827 | 2.44 | 0.888 | inactive
Hspa12a | 5 | 0.401 | 0.827 | 1.37 | -0.565 | inactive
Hspa12a | 6 | -1.32 | 0.827 | 0.767 | -3.41 | inactive
Chst14 | 1 | 3.04 | 2.33 | 3.92 | 2.16 | active
Chst14 | 2 | 3.31 | 2.33 | 2.49 | 4.13 | active
Chst14 | 3 | 1.21 | 2.33 | 0.793 | 1.64 | inactive
Chst14 | 4 | -0.521 | -1.62 | 0.552 | -1.59 | inactive
Chst14 | 5 | -2.1 | -1.62 | -1.65 | -2.56 | active
Chst14 | 6 | -2.47 | -1.62 | -1.49 | -3.45 | active
